This is one part of the list. Further columns of the screen follow, without active or inactive calls. Compounds called inactive in the main read-out are mostly missing here. Potencies come from curve fits of mixed quality, noted in brackets.
Assay: qHTS Assay for Lipid Storage Modulators in Drosophila S3 Cells;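 for cell number change: cells counted by Cell Tracker Red CMTPX staining in the red channel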
Settings: BODIPY lipid droplet fluorescence, 18-24 h; for cell number change: measured here: cell count max response, cells fed with added oleic acid
Method in brief: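 Laser-scanning cytometry quantifies lipid droplet accumulation (500–530 nm total intensity; droplet/cell object ratio) in oleic acid-fed (400 uM added) Drosophila S3 cells treated with a concentration series. 20 uM Triacsin C defined 100% inhibition.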

[1] = measured here: lipid fluorescence (Fed channel) AC50, cells fed with added oleic acid
[2] = measured here: cell number channel AC50, cells fed with added oleic acid

SMILES | cell number change [%] | AC50 [1] | AC50 [2]
CCc1n[nH]c(=S)n1/N=C/c1ccc2c(c1)OCO2 | -6.74 | – | –
Cn1nc(OC(=O)Nc2cccc(Cl)c2)cc1C(F)(F)F | -9.07 | 29.1 µM [falling, partial curve] | –
CCc1nnc(NS(=O)(=O)c2ccc(N/C=C\C(=O)c3ccc(C)cc3)cc2)s1 | 20.5 | 20.6 µM [rising, single point] | –
COc1nc(Nc2ccc(C(C)C)cc2)nc(OC)n1 | -56.2 | – | 25.9 µM [falling, single point]
Cc1oc(/N=C/c2ccc3c(c2)OCO3)c(C#N)c1C | – | 1.64 µM [rising, partial curve] | –
O=C(/C=C/c1cccs1)Nc1ccc(N2CCOCC2)c(S(=O)(=O)Nc2cc(Cl)ccc2Cl)c1 | -0.23 | 4.11 µM [rising, partial curve] | –
O=C(Nc1ccc(-n2cc(Br)cn2)cc1)c1ccncc1 | -9.47 | 10.3 µM [falling, partial curve, poor fit] | –
Cc1ncc(C(=O)O)c(C(=O)O)c1N | – | 14.6 µM [rising, partial curve, poor fit] | –
Nc1ccc2nc(SCc3ccccc3F)sc2c1 | 34.6 | 29.1 µM [rising, single point] | 29.1 µM [rising, single point]
O=S(=O)(CCc1ccncc1)Cc1ccc2c3c(cccc13)CC2 | 25.5 | – | –
O=C(Nc1ccc(C(F)(F)F)cc1)c1cc(S(=O)(=O)NCC2COc3ccccc3O2)ccc1F (centres undefined) | -39.3 | – | 29.1 µM [falling, single point]
CCC(C)[C@H](NC(=O)[C@@H]1Cc2c([nH]c3ccccc23)C2c3ccccc3C(=O)N21)C(=O)N1CCC[C@@H]1C(=O)O (some centres undefined) | -22.9 | 0.0651 µM [falling, full curve, poor fit] | –
CCN(CC(=O)Nc1cc(Cl)ccc1C)C(=O)Cc1ccsc1 | 13.8 | 4.11 µM [rising, full curve] | –
CC(=O)CCC(=O)OCC(=O)c1ccc(C(F)(F)F)cc1 | -42.9 | 1.16 µM [falling, full curve, poor fit] | 0.92 µM [falling, full curve, poor fit]
Cc1ccc(S(=O)(=O)N2CCC(C(=O)NCc3cccnc3)CC2)cc1 | 31.5 | 23.1 µM [rising, partial curve] | 0.411 µM [rising, full curve, poor fit]
O=C(NNC(=O)c1cccs1)c1csc(N2CCOCC2)n1 | – | – | 0.146 µM [rising, full curve, poor fit]
O=C(/C=C/c1cccc(Cl)c1)NCc1ccccc1 | – | 0.00461 µM [falling, full curve, poor fit] | 0.58 µM [falling, single point]
COc1ccc(NC(=O)CSc2nnc(C3CC3)n2C)cc1S(=O)(=O)N1CCOCC1 | -5.1 | 2.06 µM [rising, partial curve] | –
C(=NCCCN1CCOCC1)c1ccc2c(c1)OCO2 | 13.5 | – | –

SMILES | cell number change [%] | AC50 [1] | AC50 [2]
O=C(OCCCc1cc2ccccc2c(=O)o1)c1ccco1 | -9.7 | 1.03 µM [falling, single point] | 1.16 µM [falling, single point]
Cc1ccc(N2CC(C)Cn3c2nc2c3c(=O)[nH]c(=O)n2C)cc1 (centres undefined) | 4.17 | 29.1 µM [falling, single point] | –
CCOc1ccc(Br)cc1CNc1ccc2c(c1)OCCO2 | -12.6 | 29.1 µM [falling, single point] | –
O=C(O)C(Cc1c[nH]c2ccccc12)NS(=O)(=O)c1ccccc1 (centres undefined) | -6.79 | 1.84 µM [rising, partial curve] | 1.84 µM [rising, partial curve]
CC(NC(=O)CCN1N=C(c2ccccc2)CCC1=O)c1ccc2c(c1)OCCO2 (centres undefined) | -11.5 | – | 0.82 µM [rising, partial curve, poor fit]
CN(C)CCN1C(=O)C(=O)/C(=C(/O)c2ccc(OCc3ccccc3)cc2)C1c1ccncc1 (centres undefined) | 1.57 | 4.11 µM [falling, partial curve] | –
Cc1nc2ccccc2c(=O)n1NC(=O)c1ccccc1F | -12.6 | 0.58 µM [falling, single point] | 0.00517 µM [falling, full curve, poor fit]
CC/S(C)=N/S(=O)(=O)c1ccc(C)cc1 (centres undefined) | -31.3 | 10.3 µM [falling, partial curve] | 0.517 µM [falling, full curve, poor fit]
COCCOC(=O)C1=C(C)NC2=C(C(=O)CC(C)(C)C2)C1c1ccc2c(c1)OCO2 (centres undefined) | – | 1.16 µM [rising, single point] | –
CCOC(=O)/C=c1\s/c(=C\c2ccc(C(=O)OC)cc2)c(=O)n1CC(=O)Nc1ccccc1 | 15.3 | – | 6.51 µM [rising, single point]
O=C(COC(=O)/C=C/c1ccc(Cl)cc1)NCCN1C(=O)CSC1=O | 116 | – | –
CC(=O)N1CCc2cc(S(=O)(=O)NCCC(=O)NCCc3ccccc3)ccc21 | -12.6 | 1.3 µM [rising, partial curve] | –
COc1ccc(/C=N/NS(=O)(=O)c2ccc(F)cc2)cc1COc1cc(F)ccc1[N+](=O)[O-] | 3.25 | – | –
O=C(C1CCCN(S(=O)(=O)c2cccs2)C1)N1CCc2ccccc2C1 (centres undefined) | -23 | 6.51 µM [rising, single point] | –
NS(=O)(=O)c1ccc(CNc2ccc3ccccc3n2)cc1 | 31.7 | 0.116 µM [rising, single point] | 0.82 µM [rising, full curve, poor fit]
COc1cccc(N2CCN(C(=O)c3cccc(NC4=NC5CS(=O)(=O)CC5S4)c3)CC2)c1 (centres undefined) | 7.2 | 3.26 µM [falling, single point] | 0.651 µM [rising, single point]
CC1CCCC(C)N1/N=C/c1ccccc1F (centres undefined) | -17.7 | 1.03 µM [rising, full curve] | 0.326 µM [rising, partial curve]
O=C(O)c1sc2cc(C(F)(F)F)cnc2c1-c1ccccn1 | -56.5 | 5.8 µM [falling, full curve] | 11.6 µM [falling, partial curve, poor fit]
Cc1cc(NC(=O)c2cc(C)on2)no1 | -25.3 | 1.84 µM [falling, full curve] | 0.731 µM [falling, full curve]

Reformatted tab-delimited: part of the list above
SMILES	cell number change [%]	AC50 [1]	AC50 [2]
O=C(OCCCc1cc2ccccc2c(=O)o1)c1ccco1	-9.7	1.03 µM [falling, single point]	1.16 µM [falling, single point]
O=C(COC(=O)/C=C/c1ccc(Cl)cc1)NCCN1C(=O)CSC1=O	116	–	–
O=C(C1CCCN(S(=O)(=O)c2cccs2)C1)N1CCc2ccccc2C1 (centres undefined)	-23	6.51 µM [rising, single point]	–
O=C(O)c1sc2cc(C(F)(F)F)cnc2c1-c1ccccn1	-56.5	5.8 µM [falling, full curve]	11.6 µM [falling, partial curve, poor fit]

Continued:

SMILES | cell number change [%] | AC50 [1] | AC50 [2]
CC(C)c1cccc(C(C)C)c1NC(=O)c1ccccc1 | -24.5 | – | –
CC(C)(C)C(=O)C(Cc1ccccc1)n1cncn1 (centres undefined) | 84.3 | 3.26 µM [falling, single point] | –
Cc1ccc(N2C(=O)c3ccc(C(=O)NCCN4CCOCC4)cc3C2=O)cc1 | 17.3 | 0.146 µM [falling, partial curve, poor fit] | –
O=C(CN1CCN(c2ncc(C(F)(F)F)cc2Cl)CC1)NCCNc1ncc(C(F)(F)F)cc1Cl | -76.1 | – | –
O=C(O)Cn1ncn(-c2ccc(OC(F)(F)F)cc2)c1=O | – | 0.0058 µM [falling, full curve, poor fit] | 0.00461 µM [falling, full curve, poor fit]
COc1ccc(-c2ccc(NS(=O)(=O)c3cccc([N+](=O)[O-])c3)cc2)nn1 | 11 | 29.1 µM [rising, single point] | 0.00411 µM [rising, full curve, poor fit]
CCOc1ccc(NC(=O)CCN2CCN(S(=O)(=O)c3ccc(Cl)cc3)CC2)cc1 | 93.5 | 18.4 µM [rising, partial curve] | 14.6 µM [rising, partial curve]
C/C(=N\Nc1nc2ccccc2[nH]1)c1ccc(C)o1 | -9.63 | 18.4 µM [falling, single point] | –
CCC(C(=O)N1CCOCC1)n1c(C(=O)OC)cc2occc21 (centres undefined) | 20.8 | 29.1 µM [rising, partial curve, poor fit] | –
CCOCCCNc1ccc(N2C(=O)CCCC2=O)cc1[N+](=O)[O-] | 23.7 | 0.461 µM [falling, full curve, poor fit] | –
Cc1ccc(S(=O)(=O)N2CCN(c3ncnc4c3cnn4-c3ccccc3)CC2)cc1 | 8.43 | – | 6.51 µM [rising, single point]
C=CCNC(=O)c1ccc(N(C)S(=O)(=O)c2ccc(OC)cc2)cc1 | -3.09 | 29.1 µM [falling, partial curve, poor fit] | –
O=S(=O)(Nc1ccncc1)c1ccc(Cl)c(Cl)c1 | 6.74 | 0.58 µM [rising, single point] | –
CCCOC(=O)c1cccc(Nc2nc(-c3cccnc3)nc3ccccc23)c1 | -75.8 | 29.1 µM [falling, single point] | 23.1 µM [falling, single point]
CCOc1ccccc1Nc1nc2ccc(C)cc2n2cnnc12 | -41.7 | – | –
CCOC(=O)c1ccc(NS(=O)(=O)c2ccc3c(c2)CCCN3C(C)=O)cc1 | – | – | 0.651 µM [falling, full curve]
CS(=O)(=O)N1CCc2cc(C(=O)N3CCN(c4ccc(F)cc4)CC3)ccc21 | – | 6.51 µM [rising, single point] | –
COc1cc(OC)c(OC)cc1/C=C1\CC(C)C/C(=C\c2cc(OC)c(OC)cc2OC)C1=O (centres undefined) | -30.5 | 32.6 µM [falling, partial curve, poor fit] | 32.6 µM [falling, single point]

Reference: PubChem BioAssay AID2685 (National Center for Advancing Translational Sciences (NCATS), 2010)
